These are yes or no findings as the source states them, for the method shown. Some results given as binding are weak or reduced against the parent protein; the word gives no strength.
Molecular target: T1, MAGEH1 (NP_054780) spotted on the HuProt human protein microarray (human) (UniProt Q9H213)
T1 sequence: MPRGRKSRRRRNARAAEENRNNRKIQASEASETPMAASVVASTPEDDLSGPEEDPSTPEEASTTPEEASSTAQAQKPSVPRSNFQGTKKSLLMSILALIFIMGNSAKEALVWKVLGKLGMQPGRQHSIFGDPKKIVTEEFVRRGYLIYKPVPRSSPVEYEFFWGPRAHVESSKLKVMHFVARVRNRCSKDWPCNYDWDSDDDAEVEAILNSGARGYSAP
Assay: peptide or protein array; HuProt human protein microarray (over 19,000 full-length recombinant human proteins); blocked with 5% BSA in PBS with 0.05% tween 20; 3 ug GADD45G protein for 12 hours at 4°C; detected with biotinylated anti-GADD45G antibody and streptavidin Alexa-Fluor 532 nm; both purified

B1: GADD45G protein (Abcam) (protein, UniProt O95257 1-159)
chain: MTLEEVRGQDTVPESTARMQGAGKALHELLLSAQRQGCLTAGVYESAKVLNVDPDNVTFCVLAAGEEDEGDIALQIHFTLIQAFCCENDIDIVRVGDVQRLAAIVGAGEEAGAPGDLHCILISNPNEDAWKDPALEKLSLFCEESRSVNDWVPSITLPE
binding: binds
